Paper PMC12446476 (Nature Communications, 2025)
The source gives many values for each of these; only a part stands here.

System: N. gonorrhoeae
Test: In vitro time-kill assay
Format: cell-based, Neisseria gonorrhoeae
Excerpt: The 2024 WHO N. gonorrhoeae reference strains were used for quality control. Only whole MIC doubling dilutions are reported. Clinical breakpoints or the epidemiological cutoff (ECOFF, to indicate azithromycin resistance) from EUCAST (v14.0, https://www.eucast.org/clinical_breakpoints) were used to classify isolates as antimicrobial susceptible or resistant. […] Two times the standard inoculum defined by CLSI was used to establish consistent growth in untreated control samples for some strains. In vitro time-kill assays were performed according to CLSI guidelines[65] using Columbia Broth (BD Difco) supplemented with 1% IsoVitaleX Enrichment (BD). Viable bacterial counts were generated by plating 10-fold serially diluted samples on GC agar plates containing 1% IsoVitaleX Enrichment (BD).

`Cc1c(CN(C)C(=O)/C=C/c2cnc3c(c2)N[C@H](C)[C@H](O)C(=O)N3)oc2ccccc12` [Debio 1453] was tested. Which “Log10CFU/ml (time kill)” value (6926, 2X MIC, 0 hr) did it give?
The value was 6.26 Log10CFU/ml.

And the “Log10CFU/ml (time kill)” value (6926, 2X MIC, 1 hr)?
Its value is 5.62 Log10CFU/ml.

And the “Log10CFU/ml (time kill)” value (6926, 2X MIC, 3 hr)?
Its value is 5.57 Log10CFU/ml.

And the “Log10CFU/ml (time kill)” value (6926, 2X MIC, 6 hr)?
Its value is 4.99 Log10CFU/ml.

What about the “Log10CFU/ml (time kill)” value (6926, 2X MIC, 10 hr) of the same molecule?
The value was 4.11 Log10CFU/ml.

What about the “Log10CFU/ml (time kill)” value (6926, 2X MIC, 24 hr) of the same molecule?
Its value is 1.95 Log10CFU/ml.

What about the “Log10CFU/ml (time kill)” value (6926, 4X MIC, 0 hr) of the same molecule?
The value was 6.24 Log10CFU/ml.

And the “Log10CFU/ml (time kill)” value (6926, 4X MIC, 1 hr)?
The value was 5.83 Log10CFU/ml.

What about the “Log10CFU/ml (time kill)” value (6926, 4X MIC, 3 hr) of the same molecule?
The value was 5.05 Log10CFU/ml.

And the “Log10CFU/ml (time kill)” value (6926, 4X MIC, 6 hr)?
Its value is 4.86 Log10CFU/ml.

What about the “Log10CFU/ml (time kill)” value (6926, 4X MIC, 10 hr) of the same molecule?
The value was 3.72 Log10CFU/ml.

And the “Log10CFU/ml (time kill)” value (6926, 4X MIC, 24 hr)?
Its value is 1.95 Log10CFU/ml.

And the “Log10CFU/ml (time kill)” value (6926, 8X MIC, 0 hr)?
The value was 6.17 Log10CFU/ml.

What about the “Log10CFU/ml (time kill)” value (6926, 8X MIC, 1 hr) of the same molecule?
The value was 5.80 Log10CFU/ml.

And the “Log10CFU/ml (time kill)” value (6926, 8X MIC, 3 hr)?
Its value is 5.08 Log10CFU/ml.

What about the “Log10CFU/ml (time kill)” value (6926, 8X MIC, 6 hr) of the same molecule?
The value was 4.62 Log10CFU/ml.

What about the “Log10CFU/ml (time kill)” value (6926, 8X MIC, 10 hr) of the same molecule?
The value was 3.04 Log10CFU/ml.

And the “Log10CFU/ml (time kill)” value (6926, 8X MIC, 24 hr)?
The value was 1.95 Log10CFU/ml.

And the “Log10CFU/ml (time kill)” value (6926, 16X MIC, 0 hr)?
The value was 6.16 Log10CFU/ml.

What about the “Log10CFU/ml (time kill)” value (6926, 16X MIC, 1 hr) of the same molecule?
The value was 6.03 Log10CFU/ml.

What about the “Log10CFU/ml (time kill)” value (6926, 16X MIC, 3 hr) of the same molecule?
The value was 5.23 Log10CFU/ml.

What about the “Log10CFU/ml (time kill)” value (6926, 16X MIC, 6 hr) of the same molecule?
Its value is 4.89 Log10CFU/ml.

And the “Log10CFU/ml (time kill)” value (6926, 16X MIC, 10 hr)?
Its value is 1.95 Log10CFU/ml.

And the “Log10CFU/ml (time kill)” value (6926, 16X MIC, 24 hr)?
The value was 1.95 Log10CFU/ml.

What about the “Log10CFU/ml (time kill)” value (ATCC 49226, 4X MIC, 1 hr) of the same molecule?
The value was 5.93 Log10CFU/ml.

What about the “Log10CFU/ml (time kill)” value (ATCC 49226, 4X MIC, 3 hr) of the same molecule?
Its value is 5.41 Log10CFU/ml.

And the “Log10CFU/ml (time kill)” value (ATCC 49226, 4X MIC, 6 hr)?
The value was 3.96 Log10CFU/ml.

What about the “Log10CFU/ml (time kill)” value (ATCC 49226, 4X MIC, 10 hr) of the same molecule?
The value was 2.30 Log10CFU/ml.

What about the “Log10CFU/ml (time kill)” value (ATCC 49226, 4X MIC, 24 hr) of the same molecule?
The value was 1.95 Log10CFU/ml.

What about the “Log10CFU/ml (time kill)” value (ATCC 49226, 8X MIC, 0 hr) of the same molecule?
The value was 5.95 Log10CFU/ml.

What about the “Log10CFU/ml (time kill)” value (ATCC 49226, 8X MIC, 1 hr) of the same molecule?
Its value is 5.82 Log10CFU/ml.

What about the “Log10CFU/ml (time kill)” value (ATCC 49226, 8X MIC, 3 hr) of the same molecule?
The value was 5.40 Log10CFU/ml.

What about the “Log10CFU/ml (time kill)” value (ATCC 49226, 8X MIC, 6 hr) of the same molecule?
The value was 3.45 Log10CFU/ml.

And the “Log10CFU/ml (time kill)” value (ATCC 49226, 8X MIC, 10 hr)?
The value was 1.95 Log10CFU/ml.

What about the “Log10CFU/ml (time kill)” value (ATCC 49226, 8X MIC, 24 hr) of the same molecule?
The value was 1.95 Log10CFU/ml.

What about the “Log10CFU/ml (time kill)” value (ATCC 49226, 16X MIC, 0 hr) of the same molecule?
Its value is 5.97 Log10CFU/ml.

What about the “Log10CFU/ml (time kill)” value (ATCC 49226, 16X MIC, 1 hr) of the same molecule?
Its value is 5.96 Log10CFU/ml.

What about the “Log10CFU/ml (time kill)” value (ATCC 49226, 16X MIC, 3 hr) of the same molecule?
Its value is 5.72 Log10CFU/ml.

What about the “Log10CFU/ml (time kill)” value (ATCC 49226, 16X MIC, 6 hr) of the same molecule?
Its value is 3.18 Log10CFU/ml.

And the “Log10CFU/ml (time kill)” value (ATCC 49226, 16X MIC, 10 hr)?
The value was 1.95 Log10CFU/ml.

And the “Log10CFU/ml (time kill)” value (ATCC 49226, 16X MIC, 24 hr)?
Its value is 1.95 Log10CFU/ml.

What about the “Log10CFU/ml (time kill)” value (ATCC 700825, 2X MIC, 0 hr) of the same molecule?
The value was 6.51 Log10CFU/ml.

And the “Log10CFU/ml (time kill)” value (ATCC 700825, 2X MIC, 1 hr)?
Its value is 6.40 Log10CFU/ml.

And the “Log10CFU/ml (time kill)” value (ATCC 700825, 2X MIC, 3 hr)?
The value was 6.03 Log10CFU/ml.

What about the “Log10CFU/ml (time kill)” value (ATCC 700825, 2X MIC, 6 hr) of the same molecule?
The value was 4.87 Log10CFU/ml.

What about the “Log10CFU/ml (time kill)” value (ATCC 700825, 2X MIC, 10 hr) of the same molecule?
Its value is 2.60 Log10CFU/ml.

And the “Log10CFU/ml (time kill)” value (ATCC 700825, 2X MIC, 24 hr)?
Its value is 1.95 Log10CFU/ml.

And the “Log10CFU/ml (time kill)” value (ATCC 700825, 4X MIC, 0 hr)?
The value was 6.40 Log10CFU/ml.

What about the “Log10CFU/ml (time kill)” value (ATCC 700825, 4X MIC, 1 hr) of the same molecule?
The value was 6.29 Log10CFU/ml.

What about the “Log10CFU/ml (time kill)” value (ATCC 700825, 4X MIC, 3 hr) of the same molecule?
The value was 5.90 Log10CFU/ml.

What about the “Log10CFU/ml (time kill)” value (ATCC 700825, 4X MIC, 6 hr) of the same molecule?
Its value is 4.82 Log10CFU/ml.

And the “Log10CFU/ml (time kill)” value (ATCC 700825, 4X MIC, 10 hr)?
The value was 2.60 Log10CFU/ml.

And the “Log10CFU/ml (time kill)” value (ATCC 700825, 4X MIC, 24 hr)?
The value was 1.95 Log10CFU/ml.

What about the “Log10CFU/ml (time kill)” value (ATCC 700825, 8X MIC, 0 hr) of the same molecule?
The value was 6.42 Log10CFU/ml.

What about the “Log10CFU/ml (time kill)” value (ATCC 700825, 8X MIC, 1 hr) of the same molecule?
Its value is 6.27 Log10CFU/ml.

What about the “Log10CFU/ml (time kill)” value (ATCC 700825, 8X MIC, 3 hr) of the same molecule?
Its value is 5.83 Log10CFU/ml.

What about the “Log10CFU/ml (time kill)” value (ATCC 700825, 8X MIC, 6 hr) of the same molecule?
Its value is 4.99 Log10CFU/ml.

What about the “Log10CFU/ml (time kill)” value (ATCC 700825, 8X MIC, 10 hr) of the same molecule?
The value was 2.48 Log10CFU/ml.

What about the “Log10CFU/ml (time kill)” value (ATCC 700825, 8X MIC, 24 hr) of the same molecule?
Its value is 1.95 Log10CFU/ml.

What about the “Log10CFU/ml (time kill)” value (ATCC 700825, 16X MIC, 0 hr) of the same molecule?
Its value is 6.44 Log10CFU/ml.

What about the “Log10CFU/ml (time kill)” value (ATCC 700825, 16X MIC, 1 hr) of the same molecule?
Its value is 6.23 Log10CFU/ml.

And the “Log10CFU/ml (time kill)” value (ATCC 700825, 16X MIC, 3 hr)?
Its value is 5.67 Log10CFU/ml.

And the “Log10CFU/ml (time kill)” value (ATCC 700825, 16X MIC, 6 hr)?
Its value is 4.88 Log10CFU/ml.

And the “Log10CFU/ml (time kill)” value (ATCC 700825, 16X MIC, 10 hr)?
The value was 2.90 Log10CFU/ml.

And the “Log10CFU/ml (time kill)” value (ATCC 700825, 16X MIC, 24 hr)?
The value was 1.95 Log10CFU/ml.

And the “Log10CFU/ml (time kill)” value (WHO V, 16X MIC, 6 hr)?
Its value is 4.09 Log10CFU/ml.

What about the “Log10CFU/ml (time kill)” value (WHO V, 16X MIC, 10 hr) of the same molecule?
The value was 1.95 Log10CFU/ml.

And the “Log10CFU/ml (time kill)” value (WHO V, 16X MIC, 24 hr)?
The value was 1.95 Log10CFU/ml.

And the “Log10CFU/ml (time kill)” value (WHO X, 2X MIC, 0 hr)?
Its value is 5.77 Log10CFU/ml.

What about the “Log10CFU/ml (time kill)” value (WHO X, 2X MIC, 1 hr) of the same molecule?
The value was 5.70 Log10CFU/ml.
